According to PubChem BioAssay AID489039 (National Center for Advancing Translational Sciences (NCATS), 2010):
Inconclusive means that the source gave no clear call. Such entries were picked first, then a sample of the others. Potencies beside an inconclusive call are fits to weak or partial responses and may not hold up. Calls of active or inactive are those of the source. Calls follow the shape of the dose curve; as a rule, active = well fitted inhibition curve with a large enough effect; inconclusive = small, poorly fitted or top-dose-only effect, or effect the other way; inactive = no such curve, though single readings can be large or run the other way.

molecular target: Nuclear receptor ROR-alpha (Homo sapiens) (UniProt P35398); experiment: ROR alpha selectivity assay for inhibitors of ROR gamma transcriptional activity; settings: Drosophila S2 Gal4-RORalpha UAS-luciferase, 20 h; series mostly up to 92.2 µM
In short: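 Luciferase signal, measured 20 h after 700 uM final copper sulfate induction at ambient temperature, from S2 insect cells expressing a Gal4-RORalpha transactivation-domain fusion and UAS reporter. Compounds added 1 h before induction.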

Compound | Potency
CC1CCCN(C(=O)CC(c2ccc3c(c2)OCO3)c2cc(-c3ccccc3)ccc2O)C1 (stereo not given) | inconclusive: 18.2 µM [activator, partial curve]
CCC1(CC)CCN(C(=O)CC(c2ccc3c(c2)OCO3)c2c(O)cc(OC)cc2OC)C1 (stereo not given) | inconclusive: 32.3 µM [activator, partial curve, poor fit]
COC(=O)c1ccc(OCC(=O)c2ccc(O)cc2O)cc1 | active: 0.0575 µM
CN(C)S(=O)(=O)c1ccc(NC(=O)/C=C/c2ccccc2Cl)cc1 | inconclusive: 36.3 µM [activator, partial curve, poor fit]
COc1cc(O)c(C(CC(=O)N2CCCC(C)C2)c2cccs2)c(OC)c1 (stereo not given) | inconclusive: 5.12 µM [activator, full curve, poor fit]
CCOc1ccc(-c2cc(CCCC(=O)NCc3cccnc3)no2)cc1 | inconclusive: 0.0129 µM [inhibitor, full curve, poor fit]
COc1cc(O)c(C(CC(=O)N2CCOCC2)c2ccc(OC)c(OC)c2)c(OC)c1 (stereo not given) | inconclusive: 10.2 µM [activator, full curve, poor fit]
COc1cc(O)c(C(CC(=O)N2CC(C)CC(C)C2)c2ccc(N(C)C)cc2)c(OC)c1 (stereo not given) | inconclusive: 0.0407 µM [inhibitor, full curve, poor fit]
Cc1nn(-c2cc(C)c3ccccc3n2)c2c1C1C(C2)C1(C)C (stereo not given) | active: 8.12 µM
COc1ccc(C(CC(=O)N2CC(C)CC(C)C2)c2c(O)cc(OC)cc2OC)cc1 (stereo not given) | inconclusive: 45.7 µM [inhibitor, partial curve, poor fit]

2 neighbouring compounds already listed, for reference:
Compound | Potency
CC1CCCN(C(=O)CC(c2ccc3c(c2)OCO3)c2cc(-c3ccccc3)ccc2O)C1 (stereo not given) | inconclusive: 18.2 µM [activator, partial curve]
CCC1(CC)CCN(C(=O)CC(c2ccc3c(c2)OCO3)c2c(O)cc(OC)cc2OC)C1 (stereo not given) | inconclusive: 32.3 µM [activator, partial curve, poor fit]
